No constants are given. Whether binding was seen depends on the method and setting. Binding seen in cells or lysates may run through a third protein. Here binding means that the protein was enriched with, or labelled near, the bait; the list need not be complete.
Molecular target: PIWIL1 (PIWI-Like 1) (human (endogenous in SNU-1 and AGS)) (UniProt Q96J94)
Test: affinity purification with mass spectrometry

Protein sequences, listed by entry. Tags and fused reporters are not part of them.
UniProt Q96J94: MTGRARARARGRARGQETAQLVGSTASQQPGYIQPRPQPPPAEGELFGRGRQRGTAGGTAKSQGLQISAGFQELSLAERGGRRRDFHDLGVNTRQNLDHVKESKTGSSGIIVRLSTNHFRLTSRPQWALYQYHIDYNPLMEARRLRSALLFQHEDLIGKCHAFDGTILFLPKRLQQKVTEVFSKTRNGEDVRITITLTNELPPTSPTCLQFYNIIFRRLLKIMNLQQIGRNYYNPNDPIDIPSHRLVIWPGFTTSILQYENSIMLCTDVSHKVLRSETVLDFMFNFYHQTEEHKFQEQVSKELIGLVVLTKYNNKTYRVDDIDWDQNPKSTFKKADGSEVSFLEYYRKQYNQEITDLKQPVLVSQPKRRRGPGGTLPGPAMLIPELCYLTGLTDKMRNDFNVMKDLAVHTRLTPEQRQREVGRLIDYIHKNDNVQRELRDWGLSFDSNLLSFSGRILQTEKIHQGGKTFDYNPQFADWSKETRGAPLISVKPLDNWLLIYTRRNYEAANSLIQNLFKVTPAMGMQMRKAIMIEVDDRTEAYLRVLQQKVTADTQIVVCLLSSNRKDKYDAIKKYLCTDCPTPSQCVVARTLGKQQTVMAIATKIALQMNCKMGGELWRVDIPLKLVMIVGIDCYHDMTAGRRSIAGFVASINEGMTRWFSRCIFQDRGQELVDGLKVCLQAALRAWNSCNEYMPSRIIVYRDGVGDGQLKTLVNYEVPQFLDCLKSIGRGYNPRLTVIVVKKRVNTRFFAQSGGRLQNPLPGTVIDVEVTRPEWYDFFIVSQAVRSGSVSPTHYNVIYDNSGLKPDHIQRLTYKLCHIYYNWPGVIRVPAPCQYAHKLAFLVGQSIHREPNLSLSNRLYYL

B1: UPF1 (Up-Frameshift-1) (protein, UniProt Q92900 1-1129)
chain: MSVEAYGPSSQTLTFLDTEEAELLGADTQGSEFEFTDFTLPSQTQTPPGGPGGPGGGGAGGPGGAGAGAAAGQLDAQVGPEGILQNGAVDDSVAKTSQLLAELNFEEDEEDTYYTKDLPIHACSYCGIHDPACVVYCNTSKKWFCNGRGNTSGSHIVNHLVRAKCKEVTLHKDGPLGETVLECYNCGCRNVFLLGFIPAKADSVVVLLCRQPCASQSSLKDINWDSSQWQPLIQDRCFLSWLVKIPSEQEQLRARQITAQQINKLEELWKENPSATLEDLEKPGVDEEPQHVLLRYEDAYQYQNIFGPLVKLEADYDKKLKESQTQDNITVRWDLGLNKKRIAYFTLPKTDSGNEDLVIIWLRDMRLMQGDEICLRYKGDLAPLWKGIGHVIKVPDNYGDEIAIELRSSVGAPVEVTHNFQVDFVWKSTSFDRMQSALKTFAVDETSVSGYIYHKLLGHEVEDVIIKCQLPKRFTAQGLPDLNHSQVYAVKTVLQRPLSLIQGPPGTGKTVTSATIVYHLARQGNGPVLVCAPSNIAVDQLTEKIHQTGLKVVRLCAKSREAIDSPVSFLALHNQIRNMDSMPELQKLQQLKDETGELSSADEKRYRALKRTAERELLMNADVICCTCVGAGDPRLAKMQFRSILIDESTQATEPECMVPVVLGAKQLILVGDHCQLGPVVMCKKAAKAGLSQSLFERLVVLGIRPIRLQVQYRMHPALSAFPSNIFYEGSLQNGVTAADRVKKGFDFQWPQPDKPMFFYVTQGQEEIASSGTSYLNRTEAANVEKITTKLLKAGAKPDQIGIITPYEGQRSYLVQYMQFSGSLHTKLYQEVEIASVDAFQGREKDFIILSCVRANEHQGIGFLNDPRRLNVALTRARYGVIIVGNPKALSKQPLWNHLLNYYKEQKVLVEGPLNNLRESLMQFSKPRKLVNTINPGARFMTTAMYDAREAIIPGSVYDRSSQGRPSSMYFQTHDQIGMISAGPSHVAAMNIPIPFNLVMPPMPPPGYFGQANGPAAGRGTPKGKTGRGGRQKNRFGLPGPSQTNLPNSQASQDVASQPFSQGALTQGYISMSQPSQMSQPGLSQPELSQDSYLGDEFKSQIDVALSQDSTYQGERAYQHGGVTGLSQY
B1 was tested, and the binding was “binds”.
